Laboratory results published in publication PMC8232266, “Lanolin-Based Synthetic Membranes for Transdermal Permeation and Penetration Drug Delivery Assays” (Membranes, 2021).

Settings: SKIN; Ord 0 model; DS 3% / LIDO 2% in PG, infinite dose

SMILES: CCN(CC)CC(=O)Nc1c(C)cccc1C [Lidocaine, lidocaine]
- J (flux): 2.29 µg/cm^2/h
